Assay results: patent publication US9248103B2, “Method for improving water solubility of slightly soluble substance” (Kabushiki Kaisha Sangi, priority 2012, dated 2016)

Assay: pH of aqueous solution after 60 minutes in dissolution test using distilled water;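 note: Comparative example rows not the inventive coated formulation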
Assay type: physicochemical
Details: Lidocaine
Experimental: Moreover, as described above, since the pH of a local portion that is contacted with a poorly-soluble substance is more important than the pH of a solution as a whole, when an acidic substance is dissolved, desired effects can be obtained even though the pH is not extremely high. It is sufficient if a pH adjuster is used such that the pH of an aqueous solution of a substance with improved aqueous solubility becomes pH 8 or less. […] Herein, the pH of an aqueous solution indicates a pH value that is measured 60 minutes after the addition of a target substance to 50 mL of distilled water in an amount 2 times larger than the substance dissolved in 360 minutes. More specifically, the pH of an aqueous solution indicates a pH value that is measured according to [Dissolution test of poorly-soluble substances] in the below-mentioned Examples.
A poorly-soluble substance coated with calcium compound microparticles (a substance with improved aqueous solubility) and a test solution (50 mL) were placed in a 50-mL screw cap centrifuge tube made of glass. From initiation of the test, the mixed solution was stirred with a stirrer having a length of 15 mm. The rotation number of the stirrer was 120 rpm, and all of the tests were conducted in a thermostat at 37±0.5° C. […]

CCN(CC)CC(=O)Nc1c(C)cccc1C [7-3, Lidocaine]
pH at 60 minutes after dissolution: 9.7
